In the supplement of paper PMC3334620:
In all, about 33,000 sequences were measured (“E-score (-0.5 to 0.5)”: median about -0.0034, highest 2% from about 0.25 on). Some of the results follow.

What follows are sequences tested against T1, Yap3 (UniProt P38749) (assay: PBM E-score (8-mer binding enrichment) (E-score (-0.5 to 0.5)); higher = stronger / more preferred TF binding). Details: protein concentration: 100 nM; construct: GST-full length.
T1 sequence: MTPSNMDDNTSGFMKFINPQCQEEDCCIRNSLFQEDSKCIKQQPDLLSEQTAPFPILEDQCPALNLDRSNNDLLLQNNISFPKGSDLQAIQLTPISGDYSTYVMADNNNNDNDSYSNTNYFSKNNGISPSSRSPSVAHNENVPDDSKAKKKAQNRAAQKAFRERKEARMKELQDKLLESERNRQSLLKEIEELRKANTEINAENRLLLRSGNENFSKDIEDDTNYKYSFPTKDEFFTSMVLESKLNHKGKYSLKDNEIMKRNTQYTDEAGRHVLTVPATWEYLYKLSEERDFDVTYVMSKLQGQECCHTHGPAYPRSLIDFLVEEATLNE
Outline: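 Bound GST-tagged yeast transcription factors, applied at about 100-200 nM to double-stranded universal all-10-mer Agilent arrays, were detected with fluorescent anti-GST. Scans were normalised with masliner. A modified Wilcoxon-Mann-Whitney statistic, the E-score, was assigned to each ungapped eight-base word pooled with its reverse complement by the Universal PBM Analysis Suite.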

Sequence	PBM E-score
GAGGCTGC	-0.143
CCGGGTAA	0.0179
GACTACCA	-0.091
CGGTAGCC	0.0787
CTGACTAA	0.392
GGGTATAA	0.136
CGATACCA	0.0687
CCAATAGA	-0.0688
ACATTCTA	-0.00561
AACCGTGC	-0.0412
CAGTTCGA	0.0686
CACTCTGA	-0.131
AGTGGGAA	0.125
ATTGTTGG	0.148
CTGTATCA	-0.074
GAAGAATC	-0.13
CATCTGGA	-0.198
AACGTGCA	0.0603
GATAGCCC	-0.113
GATTTTTA	-0.0325
CCTTCGAG	-0.253
CCGGCGTA	-0.22
GTTCATCA	0.05
CTGATATA	-0.0342
GCAGATAC	0.05

Sequence	PBM E-score
AGCACTAG	0.0392
CTGTAGTA	0.281
AGCTGACT	-0.00776
CTGCGAAA	-0.22
CGATCACC	-0.0553
ACGACTCT	-0.0196
GACCGATA	0.0358
ATGGAGTC	0.0588
GAACTGCC	-0.133
CCCGATCG	-0.0307
ATCTGCGA	-0.0489
CTTGGATC	0.0677
ACGCAACT	0.11
CAAGTCAG	-0.0713
AACTTAAG	0.0692
GAAGATAA	0.162
AGGGAAAG	-0.147
CGGTGGAA	-0.192
CGGAACTA	0.0432
ATTGCTAA	0.222
CACATTAG	-0.0914
GAATATCC	0.0628
AGACGACT	-0.122
GGATATCC	0.038
ATTCCCTG	0.15

Sequence	PBM E-score
GTCGAGCA	-0.205
CGCCTGAC	-0.00752
GATCCGCC	-0.0253
ACTGTGGA	0.0177
AGGGAGGA	-0.139
AAGCGCAA	0.0713
AGACCAGA	0.0393
CCGCCTAG	-0.0538
AATGGTCC	0.113
AGCAGTAG	-0.271
GTAGCTAC	0.0989
CACGCTCA	0.0847
AACGTTGG	0.0526
AGGAGACT	-0.148
GCGGATAC	0.00093
ATGGCGGA	-0.204
ATTGGTCC	0.0822
CACCAAGA	0.0113
CGTGCGCC	0.0373
ATGTGCGA	-0.0659
GCCCAAAA	-0.154
ATTTTTTG	0.226
CTAAAGGA	-0.0468
GGGTAGGA	-0.0274
CCGAACGG	-0.13

4 records picked at random from those above:
Sequence	PBM E-score
AACGTTGG	0.0526
GTAGCTAC	0.0989
CCGAACGG	-0.13
AGGGAGGA	-0.139

Continuation.

Sequence	PBM E-score
CTCCACAA	0.0271
ATAAGTCG	-0.0267
AACCCTCC	-0.259
AGTGGCAA	0.00799
TCCACCAA	0.0413
AATTTCTC	0.155
CTGAAAGC	0.0692
ATGGACTG	-0.126
CAGCTCGC	0.0205
AGTTGAAT	0.232
AAAGAGCT	-0.0109
GCAAGCGA	0.0299
CGACAACC	-0.112
AAGGGATA	0.155
AACCAAGA	0.0398
GAGTACTA	0.078
AGGACCGC	-0.166
GAAATTTC	-0.0257
GGGGGTAC	-0.269
AGCAAAGA	0.0203
AGCTATAG	-0.228
CGACTACA	0.0886
